In patent US20240425456A1, “DEGRADER” (ASKA PHARMACEUTICAL CO., LTD., priority 2021, published 2024):
Some entries share one result that the patent states for a list of compounds.

Chains of the proteins cited; added tags and fusions are not shown. Lines headed by an entry give the natural chain unless they say otherwise; changes in a name come on top.
UniProt P29597: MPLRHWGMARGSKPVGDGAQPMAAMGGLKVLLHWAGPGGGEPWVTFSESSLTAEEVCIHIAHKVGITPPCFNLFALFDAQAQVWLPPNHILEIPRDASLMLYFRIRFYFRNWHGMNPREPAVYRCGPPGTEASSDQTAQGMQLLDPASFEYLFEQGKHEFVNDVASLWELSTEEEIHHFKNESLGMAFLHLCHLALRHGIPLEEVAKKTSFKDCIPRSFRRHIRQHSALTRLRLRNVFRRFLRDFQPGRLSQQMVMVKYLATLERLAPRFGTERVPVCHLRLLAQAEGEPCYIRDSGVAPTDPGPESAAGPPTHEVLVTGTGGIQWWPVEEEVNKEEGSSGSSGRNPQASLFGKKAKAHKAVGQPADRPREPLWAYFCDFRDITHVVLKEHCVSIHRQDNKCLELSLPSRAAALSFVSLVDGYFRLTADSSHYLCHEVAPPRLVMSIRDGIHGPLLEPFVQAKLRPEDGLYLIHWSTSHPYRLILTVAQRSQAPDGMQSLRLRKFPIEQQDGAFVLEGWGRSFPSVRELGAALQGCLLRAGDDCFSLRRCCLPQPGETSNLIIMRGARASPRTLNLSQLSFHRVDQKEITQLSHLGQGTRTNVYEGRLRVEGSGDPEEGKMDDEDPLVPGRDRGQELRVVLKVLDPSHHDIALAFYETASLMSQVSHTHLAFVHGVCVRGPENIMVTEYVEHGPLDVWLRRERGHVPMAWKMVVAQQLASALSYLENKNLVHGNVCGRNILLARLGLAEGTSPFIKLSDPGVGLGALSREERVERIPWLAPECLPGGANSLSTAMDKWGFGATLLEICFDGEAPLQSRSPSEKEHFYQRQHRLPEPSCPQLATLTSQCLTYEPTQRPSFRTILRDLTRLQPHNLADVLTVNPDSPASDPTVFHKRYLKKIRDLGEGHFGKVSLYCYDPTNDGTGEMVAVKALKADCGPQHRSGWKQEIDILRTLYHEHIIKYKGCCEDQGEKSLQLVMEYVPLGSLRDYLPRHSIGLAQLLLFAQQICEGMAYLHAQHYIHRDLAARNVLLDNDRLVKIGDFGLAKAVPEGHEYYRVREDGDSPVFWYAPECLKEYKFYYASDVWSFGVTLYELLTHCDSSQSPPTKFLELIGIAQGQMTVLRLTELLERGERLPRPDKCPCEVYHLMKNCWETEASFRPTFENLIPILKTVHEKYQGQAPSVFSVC

What follows are molecules tested against T1, Tyk2 (Homo sapiens, UniProt P29597) (assay: Degradation-inducing effect on JAK in Jurkat cells (chemiluminescent Western blotting), Tyk2). Settings: 1 μmol/L, 6 hours.
T1 construct: endogenous in cells; host or cells: Jurkat cells
Format: cell-based
Procedure: The degradation-inducing effect of the compound of the present invention on JAK family proteins was evaluated in vitro using Jurkat cells, of which cell line was derived from human leukemic T cells.
JAK1, JAK2, JAK3, and Tyk2-positive Jurkat cells were seeded at a density of 1×10^5 cells/mL on 10 cm diameter dishes and then cultured in RPMI 1640 medium (FUJIFILM Wako Pure Chemical: catalog number: 189-02025) containing 10% FBS (Thermo Fisher Scientific: catalog number: 10437-028) at 5% CO2 and 37° C. for 3 days. Then, each of the test compounds (compounds of Examples 1 to 11 and Comparative Examples 1 and 2) was added to the dish at a final concentration of 1 μmol/L, and the cells were cultured in the presence of the test compound for 6 hours. After that, the cell culture medium was collected in a 15 mL centrifuge tube (1000 rpm (240× g), room temperature, 5 min), followed by washing with PBS (1000 rpm (240× g), room temperature, 5 min). Then, the cells in the centrifuge tube were collected in a 1.5 mL tube (3000 rpm (860× g), 4° C., 5 min), lysed using RIPA buffer (25 mmol/L Tris-HCl (pH 7.4), 25 mmol/L NaCl, 0.5 mmol/L EGTA (pH 8.0), 0.1% SDS, 1% protease inhibitor), sonicated at ice temperature (cycles of [7.5 sec sonication, 5 sec off] for 5 min) and subjected to centrifugation (15000 rpm (21600× g), 4° C., 30 min). The thus-obtained supernatant was used as the protein solution. Using the BCA protein assay kit (Thermo Fisher Scientific: catalog number: 23225), the protein concentration of the protein solution of each test compound was measured according to the kit instructions, and then adjusted to 1.4 mg/mL with RIPA buffer. The thus-adjusted protein solutions were subjected to a fully automated Western blotting device (Simple Westerns Wes: proteinSimple) to detect the protein levels (JAK1, JAK2, JAK3, and Tyk2 as the target proteins, and GAPDH (Glyceraldehyde 3-phosphate dehydrogenase) as the internal standard protein) in the protein solutions by chemiluminescent Western blotting.
Furthermore, the luminescence levels of JAK1, JAK2, JAK3, and Tyk2 detected by chemiluminescent Western blotting were quantified numerically by using an analysis software (Compass software for Simple Western (version 4.0.0)) attached to the fully automated Western blotting device. The numerical values of the quantified luminescence levels were corrected by the protein levels of the internal standard protein, i.e., GAPDH, (target protein levels/GAPDH protein levels), and compared among the test compounds with dimethyl sulfoxide (DMSO) as 100%.

SMILES	protein level of Tyk2 (in words)
CNC(=O)c1cnc(Nc2ccc(C(=O)NCCCC(=O)N[C@H](C(=O)N3C[C@H](O)C[C@H]3C(=O)NCc3ccc(-c4scnc4C)cc3)C(C)(C)C)cn2)cc1Nc1cccc(C(=O)NC)c1OC [Example 1]	reduced
CNC(=O)c1cccc(Nc2cc(Nc3ccc(C(=O)NCCCCCCCCCC(=O)N[C@H](C(=O)N4C[C@H](O)C[C@H]4C(=O)NCc4ccc(-c5scnc5C)cc4)C(C)(C)C)cn3)ncc2C(N)=O)c1OC [Example 9, 6-((5-Carbamoyl-4-((2-methoxy-3-(methylcarbamoyl)phenyl)amino)pyridin-2-yl)amino)-N-(10-(((S)-1-((2S,4R)-4-hydroxy-2-((4-(4-methylthiazol-5-yl)benzyl)carbamoyl)pyrrolidin-1-yl)-3,3-dimethyl-1-oxobutan-2-yl)amino)-10-oxodecyl) nicotinamide]	reduced
CNC(=O)c1cnc(Nc2ccc(C(=O)NCCCCCC(=O)N[C@H](C(=O)N3C[C@H](O)C[C@H]3C(=O)NCc3ccc(-c4scnc4C)cc3)C(C)(C)C)cn2)cc1Nc1cccc(C(=O)NC)c1OC [Example 2, 6-((5-((6-(((S)-1-((2S,4R)-4-Hydroxy-2-((4-(4-methylthiazol-5-yl)benzyl)carbamoyl)pyrrolidin-1-yl)-3,3-dimethyl-1-oxobutan-2-yl)amino)-6-oxohexyl)carbamoyl)pyridin-2-yl)amino)-4-((2-methoxy-3-(methylcarbamoyl)phenyl)amino)-N-methylnicotinamide]	reduced
